According to PMC7251110:
Results are given in words; binding and its absence hold for the method and conditions named. Binding seen in cells or lysates may run through a third protein. Binding calls can cover weak binding; strength is not graded here.

By UniProt entry, the sequences of proteins in these tests, tags left out. Where a name states a change or a piece, a line headed by the entry shows the natural chain unless it says otherwise.
UniProt Q9H8M2: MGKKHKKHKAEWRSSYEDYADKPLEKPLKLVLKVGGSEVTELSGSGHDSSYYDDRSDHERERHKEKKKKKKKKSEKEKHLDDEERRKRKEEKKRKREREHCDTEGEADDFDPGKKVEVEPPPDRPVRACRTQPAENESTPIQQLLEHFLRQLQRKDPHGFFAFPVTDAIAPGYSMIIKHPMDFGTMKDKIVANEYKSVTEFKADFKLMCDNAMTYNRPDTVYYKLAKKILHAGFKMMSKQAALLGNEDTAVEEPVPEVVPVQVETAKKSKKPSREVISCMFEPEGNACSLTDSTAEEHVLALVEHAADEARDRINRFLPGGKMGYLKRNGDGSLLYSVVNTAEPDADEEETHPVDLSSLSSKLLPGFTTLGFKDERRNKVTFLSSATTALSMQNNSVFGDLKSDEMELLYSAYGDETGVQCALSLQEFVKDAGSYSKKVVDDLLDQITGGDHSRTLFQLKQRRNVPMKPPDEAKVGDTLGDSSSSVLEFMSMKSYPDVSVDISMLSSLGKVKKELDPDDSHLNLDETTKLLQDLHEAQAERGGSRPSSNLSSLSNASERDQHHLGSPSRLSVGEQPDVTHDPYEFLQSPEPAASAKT
UniProt Q06609: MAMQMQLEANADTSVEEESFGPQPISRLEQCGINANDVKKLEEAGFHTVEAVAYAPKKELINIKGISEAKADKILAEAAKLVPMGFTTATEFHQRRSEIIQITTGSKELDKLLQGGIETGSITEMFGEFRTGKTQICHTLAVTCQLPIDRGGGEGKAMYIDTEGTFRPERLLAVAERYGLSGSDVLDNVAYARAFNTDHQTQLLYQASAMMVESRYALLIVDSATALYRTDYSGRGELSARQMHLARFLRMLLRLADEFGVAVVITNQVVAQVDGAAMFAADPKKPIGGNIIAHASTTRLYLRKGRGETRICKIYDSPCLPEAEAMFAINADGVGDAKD

Molecular target: HA-tagged BRD9 with a deletion of the bromodomain (∆-Bromo) (UniProt Q9H8M2)
Experiment: co-IP; 293T cells transfected with HA-BRD9 constructs, with or without 10-Gy IR, anti-HA beads, blots for RAD51 and RAD54; NETN buffer, 4 °C

## RAD51 (detected with anti-RAD51 antibody in cell lysates) (from UniProt Q06609 1-339)
  binding: binds
